Laboratory results: patent US11999802B2, “Compositions and methods for selective protein degradation” (Novartis AG, priority 2017, dated 2024)
At least one compound was matched to its structure with a doubt left.

The chains behind the UniProt entries cited, without tags or fusion partners. A line that says so, or that is headed by a name, gives the form on record, which may keep a tag or linker.
UniProt Q96SW2, whole entry, stated change not applied: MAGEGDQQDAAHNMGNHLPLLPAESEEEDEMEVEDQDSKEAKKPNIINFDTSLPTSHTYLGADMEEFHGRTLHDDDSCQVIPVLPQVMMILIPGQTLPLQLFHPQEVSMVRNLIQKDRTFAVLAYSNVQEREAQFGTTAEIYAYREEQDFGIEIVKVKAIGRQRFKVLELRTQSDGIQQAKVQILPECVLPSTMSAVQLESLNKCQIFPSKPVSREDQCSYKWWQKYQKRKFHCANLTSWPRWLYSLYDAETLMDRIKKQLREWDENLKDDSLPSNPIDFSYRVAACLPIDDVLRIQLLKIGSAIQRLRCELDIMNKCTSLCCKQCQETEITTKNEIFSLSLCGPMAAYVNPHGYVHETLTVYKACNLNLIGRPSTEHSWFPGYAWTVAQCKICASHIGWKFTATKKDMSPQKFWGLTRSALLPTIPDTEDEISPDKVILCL
UniProt Q9UKT9, with tags, fused parts or gaps isoform Q9UKT9-3 DEL181-196/S197T limits assumed: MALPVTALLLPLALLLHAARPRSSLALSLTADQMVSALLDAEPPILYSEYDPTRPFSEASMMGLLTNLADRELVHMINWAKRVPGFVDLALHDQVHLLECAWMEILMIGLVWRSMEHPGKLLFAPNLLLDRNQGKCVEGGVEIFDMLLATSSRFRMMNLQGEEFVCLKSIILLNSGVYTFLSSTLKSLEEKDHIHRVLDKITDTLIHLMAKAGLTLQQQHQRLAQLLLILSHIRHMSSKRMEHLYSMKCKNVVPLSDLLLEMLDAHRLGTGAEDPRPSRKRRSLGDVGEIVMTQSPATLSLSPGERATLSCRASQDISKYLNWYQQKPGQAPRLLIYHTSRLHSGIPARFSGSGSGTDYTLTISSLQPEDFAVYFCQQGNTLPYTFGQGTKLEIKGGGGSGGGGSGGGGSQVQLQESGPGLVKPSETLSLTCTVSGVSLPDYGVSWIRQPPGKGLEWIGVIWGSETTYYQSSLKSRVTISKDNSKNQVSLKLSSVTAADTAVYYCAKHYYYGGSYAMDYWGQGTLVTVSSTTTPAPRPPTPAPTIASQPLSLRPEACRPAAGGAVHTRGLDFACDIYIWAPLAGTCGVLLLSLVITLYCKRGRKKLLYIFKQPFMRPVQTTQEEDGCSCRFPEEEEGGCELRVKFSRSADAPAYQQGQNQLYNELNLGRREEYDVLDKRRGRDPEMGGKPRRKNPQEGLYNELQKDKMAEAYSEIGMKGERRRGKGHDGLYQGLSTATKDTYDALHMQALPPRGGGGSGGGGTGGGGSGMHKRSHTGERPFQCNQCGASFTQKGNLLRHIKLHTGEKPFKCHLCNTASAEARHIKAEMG

Target: T1, construct 767 (FurON_CAR19_16GS_HilD tag) (Homo sapiens, UniProt Q96SW2+Q9UKT9, DEL181-196/S197T)
T1 construct: Construct 767 comprises, from N-terminus to C-terminus, a signal peptide, FurON, CAR19, a 16GS linker, and the HilD tag; signal peptide (N); FurON (mutated degradation domain + furin cleavage site) (N, cleaved yes); expressed in transfected cells; host or cells: JNL cells (Jurkat NFAT-luciferase), lentiviral transduction
Assay: JNL NFAT luciferase reporter assay, construct 767
Type: cell-based
Details: constructs comprising FurON, CD19+ cells

SMILES: Cc1c(-c2ccc(O)cc2)n(Cc2ccc(OCCN3CCCCCC3)cc2)c2ccc(O)cc12 [bazedoxifene, Bazedoxifene]
- requirement of bazedoxifene for reporter activation: necessary to activate the NFAT-luciferase reporter
